# PubChem BioAssay AID493014 (National Center for Advancing Translational Sciences (NCATS), 2011)
# The whole screen tested about 340,000 compounds, of which about 170 (0.05%) were called active. This list was built around the results that the source calls inconclusive (neither active nor inactive); the mix of calls is not that of the screen. Calls come from the whole dose curve; as a rule, active = well fitted inhibition curve with a large enough effect in the signal ratio, with a control signal flat (not every such curve was filed as active); inconclusive = small, poorly fitted or top-dose-only effect, or effect the other way, or a change in a side signal; inactive = flat fitted curve, though single readings scatter; the % refers to the signal ratio. Potencies of inconclusive entries are doubtful fits and often do not repeat.
# Experiment: qHTS Assay to Find Inhibitors of Chronic Active B-Cell Receptor Signaling;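 for activity change, negative = inhibition: plate controls were basal doxycycline-induced cells for no effect and cells given 10 µM MG132 for full effect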
# Conditions: ABC-DLBCL IkBa-CBG/CBR reporter, luminescence ratio (green luciferase fused to IkBa over red control in TMD8 lymphoma cells), 4 h; activity change, negative = inhibition: at 46.1 µM (top of the series) unless noted
# Method in brief: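 TMD8 human ABC-DLBCL cells with doxycycline-inducible IκBα–green luciferase fusion and unfused red luciferase, in 0.5% FBS medium; compounds up to 46 uM, 4 h at 37C. Green/red luminescence ratio, filter-overlap corrected, fitted to concentration-response curves.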
# Potency is the fitted concentration of half-maximal effect.
SMILES,"activity change, negative = inhibition",Potency
CC(C)CCn1c(O)c(N=NC(=O)c2ccco2)c2ccccc21,inconclusive: 3.03%,
Oc1c(CN2CCN(c3ccccn3)CC2)cc(Cl)c2cccnc12,inconclusive: -27.5%,
CC1(c2nnc(-c3ccc(Cl)cc3)o2)CC(c2cccc(Cl)c2)=NO1 (stereo not given),inconclusive: 6.67%,
CC(C)CCN(Cc1ccco1)S(=O)(=O)c1csc(C(N)=O)c1,inactive: -9.03%,
Cc1nc(NCc2cccnc2)c2c3c(sc2n1)CCCC3,inactive: 10.2%,
Cc1cc(-c2csc(N)n2)c(C)n1CCc1ccccc1,inactive: 9.54%,
Cc1noc(C)c1COc1ccccc1C(=O)NCCc1ccc(Cl)cc1,inconclusive: 16.7%,
COc1cccc(C(=O)N2N=C(c3cccc(OC)c3)CC2(O)C(F)(F)F)c1 (stereo not given),,"inconclusive: 11.2 µM [falling, partial curve]"
COc1cccc(C2Nc3cccc4cccc(c34)N2)c1,inconclusive: 1.12%,
COc1ccc(Cl)cc1C(=O)NNC(=O)c1ccncc1,,"inconclusive: 35.5 µM [falling, single point]"
CCCCCCOc1ccc(C(=O)O)cc1,inconclusive: -12.5%,
CCc1ccc(C2=NN(CCC(=O)NCCc3ccc(Cl)cc3)C(=O)CC2)cc1,,"inconclusive: 22.4 µM [falling, partial curve]"
COc1ccc(NC(=O)c2ccc(OCC3CCCO3)cc2)cc1OC (stereo not given),,"inconclusive: 29.1 µM [falling, single point]"
CCCN(CC(=O)Nc1cc(Cl)ccc1Cl)C(=O)c1ccccn1,inconclusive: -0.119%,
CSc1ccc(CN2CCC(n3nccc3NC(=O)C3CCOC3)CC2)cc1 (stereo not given),inactive: -3.77%,
COc1cccc(C2=NNC(=NCc3ccccc3)SC2)c1,inconclusive: -20.5%,
Cc1ccc(Sc2ccc(N)cn2)cc1,,"inconclusive: 2 µM [falling, partial curve, poor fit]"
O=C(COC(=O)c1ccncc1)Nc1ccc2c(c1)OCO2,inconclusive: 0.271%,
CCOc1ccc(Cl)cc1S(=O)(=O)N1CCC(C(=O)NCc2ccncc2)CC1,inactive: -1.9%,
O=C(N/N=C(\CC(=O)c1cccs1)C(F)(F)F)c1ccncc1,inconclusive: 4.56%,
Cc1nc(Sc2ccccc2)c(C#N)c(C)c1[N+](=O)[O-],,"inconclusive: 25.1 µM [falling, single point]"
CC(CNC(=O)c1cc(COc2ccc3ncccc3c2)on1)c1ccccc1 (stereo not given),inconclusive: -14.4%,

# Random excerpt: four records from the list, in no set order.
SMILES,"activity change, negative = inhibition",Potency
CSc1ccc(CN2CCC(n3nccc3NC(=O)C3CCOC3)CC2)cc1 (stereo not given),inactive: -3.77%,
Cc1cc(-c2csc(N)n2)c(C)n1CCc1ccccc1,inactive: 9.54%,
CC(C)CCN(Cc1ccco1)S(=O)(=O)c1csc(C(N)=O)c1,inactive: -9.03%,
COc1ccc(NC(=O)c2ccc(OCC3CCCO3)cc2)cc1OC (stereo not given),,"inconclusive: 29.1 µM [falling, single point]"

# Following part.

SMILES,"activity change, negative = inhibition",Potency
Cc1nnc(Nc2ccc(Cl)c(C(F)(F)F)c2)[nH]c1=O,inconclusive: -1.01%,
COc1ccc(-c2c(C)cc3oc(=O)cc(-c4ccccc4)c3c2C)cc1OC,inconclusive: 0.994%,
FC(F)(F)c1cccc(Nc2ncnc3ccccc23)c1,inconclusive: -9.34%,
CN(O)/C=c1/ccc2c(n1)C(=O)C=CC=2,inconclusive: -16.9%,
CCOC(=O)c1ccc(NC(=O)CN2C(=O)NC3(CCC(C)CC3)C2=O)cc1 (stereo not given),inconclusive: 3.9%,
CN(CC(=O)Nc1ccc(Cl)cc1)CC(=O)Nc1cc(Cl)ccc1C#N,inactive: -9.84%,
O=c1c2ccccc2nc(SCc2ccc(F)cc2Cl)n1CCCN1CCOCC1,inconclusive: 1.26%,
CCCN(C(=O)c1cc(S(=O)(=O)N2CCCCCC2)ccc1OC)C1CCS(=O)(=O)C1 (stereo not given),inconclusive: 8.36%,
CN1CCN(C(=O)/C(=C\c2cccs2)NC(=O)c2ccccc2)CC1,inconclusive: 3.65%,
CCOc1ccccc1C(=O)NN1C(=O)C2CCCCC2C1=O (stereo not given),inconclusive: 0.202%,
CC(C)(C)c1ccccc1NC(=O)N1CCNC(=O)C1CC(=O)Nc1ccc(F)cc1 (stereo not given),inactive: 0.375%,
CCc1c(C(=O)Nc2nnc(C3CC3)s2)csc1C,inconclusive: -0.0843%,
COC(=O)c1cc(NC(=O)c2cccc([N+](=O)[O-])c2C)ccc1Cl,inactive: -9.87%,
Cc1sc2nc(CSc3ccccc3)nc(N3CCOCC3)c2c1C,inconclusive: -0.62%,
CCOc1cc(/C=N/NC(=O)Cn2nc([N+](=O)[O-])cc2C)cc(Br)c1OCc1ccccc1C,inconclusive: 1.89%,
O=C(NC(=S)Nc1cnc2ccccc2c1)c1ccccc1,,"inconclusive: 12.6 µM [falling, partial curve]"
Cc1ccc(N(O)C(=O)OCCNC(=O)Nc2ccccc2)cc1,inconclusive: -1.27%,
COc1c2ccc(C(=O)NCc3cc(C(F)(F)F)cc(C(F)(F)F)c3)cc2nn1C,,"inconclusive: 5.17 µM [falling, partial curve, poor fit]"
O=C(c1ccccc1)N1N=C(c2ccccc2)CC1c1ccccc1[N+](=O)[O-] (stereo not given),inactive: 5.81%,
COc1ccccc1CNC(=O)COc1ccc(Br)c(C)c1,,"inconclusive: 35.5 µM [falling, single point]"
COc1ccc(C(=O)NNC(=O)c2snnc2C)cc1,,"inconclusive: 22.4 µM [falling, single point]"
N#CC(C#N)=C1NC2(CCCCC2)Cc2ccccc21,inconclusive: -9.11%,

SMILES,"activity change, negative = inhibition",Potency
Cc1cccc(NC(=O)CN2C(=S)NC(C)(C)CC2C)c1 (stereo not given),inconclusive: 5.89%,
Cc1c(Cl)cccc1NC(=O)C1COc2ccccc2O1 (stereo not given),inconclusive: 11.7%,
COc1ccc(CCNC(=O)c2ccc(CNS(=O)(=O)c3ccccc3)cc2)cc1OC,inconclusive: 0.498%,
COc1ccc(CCNCC2C(Oc3ccc(Cl)cc3)C(=O)N2c2ccccc2C)cc1OC (stereo not given),,"inconclusive: 5.01 µM [falling, partial curve, poor fit]"
C=CCOc1ccnc(-c2ccccc2)n1,inconclusive: 3.59%,
COc1ccc(OC)c2[nH]c(=O)c(CCNC(=O)c3ccc4c(c3)OCO4)cc12,inconclusive: 1.55%,
O=C(Nc1ccc(C(=O)Oc2ccccc2)c(O)c1)c1ccco1,,"inconclusive: 14.6 µM [falling, partial curve]"
O=C(Nc1ccccc1F)c1ccc(C(=O)c2ccccc2)cc1,inconclusive: -5.13%,
O=C(Nc1cccc(-c2ccc(N3CCCCC3)nn2)c1)C(F)(F)F,,"inconclusive: 35.5 µM [rising, single point]"
O=C(Cn1nnc(-c2ccccc2-n2cnnn2)n1)c1ccccc1,inconclusive: 15.7%,
C/C(=N/NC(=O)c1ccco1)c1cccc(NC(=O)c2ccc(C)s2)c1,,"inconclusive: 20.6 µM [falling, single point]"
COc1cccc(C(=O)OC2CCN(C)CC2)c1,inconclusive: 7.97%,
CCOC(=O)C1=C(C)N(c2ccccc2)C(=O)NC1c1cccc([N+](=O)[O-])c1 (stereo not given),inconclusive: -10%,
Cc1ccccc1Nc1c(-c2ccncc2)nc2ccc(Cl)cn12,inconclusive: 7.31%,
CCOC(=O)CC(=O)CSc1nc(-c2cccnc2)ccc1C#N,inactive: 7.49%,
O=C(NCCC1=CCCCC1)C1CCN(C(=O)Nc2ccccc2)CC1,inconclusive: 1.73%,
COc1ccc(C(CNC(=O)c2cccc(N(C)C)c2)N2CCCC2)cc1 (stereo not given),inactive: 0.0854%,
COc1c(-c2ccc(O)c(O)c2)oc2cc(O)cc(O)c2c1=O,inactive: -14.6%,
Cc1ccc(/C=C2/SC(=S)N(CCC(=O)N3CCN(C)CC3)C2=O)cc1,,"inconclusive: 11.2 µM [falling, partial curve, poor fit]"
Cc1ccc(NNC(=O)c2ccno2)c(C)c1,inconclusive: 16%,
O=C(COC(=O)c1ccc(Cl)nc1)NCc1cccs1,inconclusive: 9.73%,
O=C(O)c1ccc(S(=O)(=O)c2ccc3c(c2)C(=O)N(NC(=O)c2cccnc2)C3=O)cc1,,"inconclusive: 10 µM [falling, partial curve]"

SMILES,"activity change, negative = inhibition",Potency
O=C(Nc1ccc(Cl)c([N+](=O)[O-])c1)ONC1=NCCCCC1,inconclusive: -29%,
CC1(C)CC(=O)CC2(C1)NCC(c1ccccc1)c1c2[nH]c2ccccc12 (stereo not given),inconclusive: -0.162%,
O=C(COc1cccc2ccccc12)N1CCN(c2ccccc2)CC1,,"inconclusive: 29.1 µM [falling, single point]"
COC(=O)c1ccc(O)cc1,inactive: 2.9%,
O=c1c2c3c(sc2nc2n1CCC2)CCCCC3,inactive: -8.86%,
COc1ccccc1NS(=O)(=O)c1cccc(NC(=O)Nc2ccc(Cl)cc2)c1,inconclusive: -9.9%,
C/C(=N\NC(=O)c1cccc(C)c1)c1cccc(NC(=O)c2ccco2)c1,,"inconclusive: 35.5 µM [falling, single point]"
COc1ccccc1CCC(=O)NNC(=O)c1ccncc1,,"inconclusive: 29.1 µM [falling, single point]"
C=CCNC(=O)C1CC2Cn3c(nc4cc(C)c(C)cc43)C2N1C (stereo not given),inconclusive: 0.803%,
CC1(C)Cc2ccccc2/C(=C/C(=O)N2CCCCCC2)N1,inconclusive: 31%,
CN(CCOc1ccc(Cl)cc1)C(=O)CNS(=O)(=O)c1ccc(N(C)C)c([N+](=O)[O-])c1,inconclusive: -9.22%,
Cc1ccc(-c2c(C#N)c(N)nc3c2CCCCC3)o1,inactive: 3.02%,
COc1cccc(-c2ccc(NC(=O)C3CCCN(Cc4cnn(C)c4C)C3)cc2)c1 (stereo not given),inconclusive: -24%,
N#C/C(=C\c1ccc[nH]1)C(=O)c1ccccc1,inconclusive: -0.703%,
Cc1nn(Cc2ccc([N+](=O)[O-])cc2)c(=O)n1N(C)c1ncc(C(F)(F)F)cc1Cl,inactive: -6.55%,
CCOC(=O)C(NC(=O)NCc1cccc(C(F)(F)F)c1)(OCC)C(F)(F)F (stereo not given),inconclusive: -4.28%,
O=C(N/N=C/c1c(O)ccc2ccccc12)c1ccc(Br)o1,inactive: 5.47%,
CC(=O)NC1C(=O)N(CCN2CCOCC2)c2ccc(Cl)cc21 (stereo not given),inactive: 1.02%,
COc1ccc(/C=N/NC(=O)c2nc(Cl)c(Cl)c(N)c2Cl)cc1COc1ccccc1F,inconclusive: -0.152%,
